Reference: the supplement of paper PMC10849652
This is one part of the list.

Protein sequences, listed by entry. Tags and fused reporters are not part of them. Lines headed by an entry give the natural chain unless they say otherwise; changes in a name come on top.
UniProt P61224: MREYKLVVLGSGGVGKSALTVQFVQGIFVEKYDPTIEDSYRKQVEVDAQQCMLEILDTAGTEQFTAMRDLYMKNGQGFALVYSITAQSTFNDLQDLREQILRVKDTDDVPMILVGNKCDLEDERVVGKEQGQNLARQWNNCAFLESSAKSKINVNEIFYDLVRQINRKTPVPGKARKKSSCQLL
UniProt P53611: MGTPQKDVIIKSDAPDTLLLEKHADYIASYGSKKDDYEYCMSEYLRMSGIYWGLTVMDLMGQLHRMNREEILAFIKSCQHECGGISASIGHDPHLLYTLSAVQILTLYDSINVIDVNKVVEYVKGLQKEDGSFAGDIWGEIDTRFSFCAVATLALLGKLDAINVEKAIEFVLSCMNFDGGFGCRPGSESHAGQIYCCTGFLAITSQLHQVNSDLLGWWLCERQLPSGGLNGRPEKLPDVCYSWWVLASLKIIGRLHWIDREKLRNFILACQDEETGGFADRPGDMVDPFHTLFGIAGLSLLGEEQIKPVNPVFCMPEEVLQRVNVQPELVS
UniProt P62820, whole entry, looked up: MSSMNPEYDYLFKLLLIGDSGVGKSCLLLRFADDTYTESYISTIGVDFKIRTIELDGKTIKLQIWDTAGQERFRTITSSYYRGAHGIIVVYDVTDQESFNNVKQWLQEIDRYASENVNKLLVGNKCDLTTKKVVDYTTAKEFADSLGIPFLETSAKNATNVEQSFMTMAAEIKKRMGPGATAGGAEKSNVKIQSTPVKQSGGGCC
UniProt O43251: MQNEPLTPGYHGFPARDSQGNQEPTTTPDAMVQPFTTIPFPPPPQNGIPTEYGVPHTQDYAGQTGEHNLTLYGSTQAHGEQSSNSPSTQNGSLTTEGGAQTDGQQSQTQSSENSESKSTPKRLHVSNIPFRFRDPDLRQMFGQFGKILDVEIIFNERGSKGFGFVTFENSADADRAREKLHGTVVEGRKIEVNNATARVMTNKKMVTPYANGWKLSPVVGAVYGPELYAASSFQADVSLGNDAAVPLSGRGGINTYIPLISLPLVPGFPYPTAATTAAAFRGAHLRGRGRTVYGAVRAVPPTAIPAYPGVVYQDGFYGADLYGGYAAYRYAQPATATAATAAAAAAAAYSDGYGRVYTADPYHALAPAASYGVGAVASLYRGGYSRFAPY
UniProt P20339: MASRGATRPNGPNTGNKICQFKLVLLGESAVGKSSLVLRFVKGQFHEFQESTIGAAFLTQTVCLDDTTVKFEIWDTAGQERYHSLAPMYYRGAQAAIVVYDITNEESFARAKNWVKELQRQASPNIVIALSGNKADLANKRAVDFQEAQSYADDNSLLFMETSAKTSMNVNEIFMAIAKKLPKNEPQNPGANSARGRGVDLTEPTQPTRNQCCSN
UniProt P43487, whole entry, looked up: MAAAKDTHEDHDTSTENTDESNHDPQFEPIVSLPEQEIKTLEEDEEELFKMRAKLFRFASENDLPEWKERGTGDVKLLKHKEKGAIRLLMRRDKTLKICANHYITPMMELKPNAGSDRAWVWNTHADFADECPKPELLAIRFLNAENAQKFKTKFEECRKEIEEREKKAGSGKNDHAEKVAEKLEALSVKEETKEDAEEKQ
UniProt O60216: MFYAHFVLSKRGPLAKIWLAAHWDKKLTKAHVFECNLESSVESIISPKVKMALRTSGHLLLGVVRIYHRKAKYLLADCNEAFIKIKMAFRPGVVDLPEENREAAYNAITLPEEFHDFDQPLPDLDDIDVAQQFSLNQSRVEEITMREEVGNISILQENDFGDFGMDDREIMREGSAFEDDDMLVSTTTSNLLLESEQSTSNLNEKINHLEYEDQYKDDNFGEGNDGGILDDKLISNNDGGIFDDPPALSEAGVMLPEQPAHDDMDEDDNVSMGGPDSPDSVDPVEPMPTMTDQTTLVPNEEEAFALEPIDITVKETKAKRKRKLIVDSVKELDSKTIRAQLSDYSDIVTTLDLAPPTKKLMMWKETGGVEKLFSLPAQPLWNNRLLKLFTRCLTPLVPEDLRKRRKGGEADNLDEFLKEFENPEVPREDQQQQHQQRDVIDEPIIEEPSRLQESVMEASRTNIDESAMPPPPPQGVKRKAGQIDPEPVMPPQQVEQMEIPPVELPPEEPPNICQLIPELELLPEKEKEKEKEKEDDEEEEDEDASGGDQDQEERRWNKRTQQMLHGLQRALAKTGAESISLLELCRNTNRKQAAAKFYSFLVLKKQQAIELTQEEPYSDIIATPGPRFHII
UniProt Q86YS6: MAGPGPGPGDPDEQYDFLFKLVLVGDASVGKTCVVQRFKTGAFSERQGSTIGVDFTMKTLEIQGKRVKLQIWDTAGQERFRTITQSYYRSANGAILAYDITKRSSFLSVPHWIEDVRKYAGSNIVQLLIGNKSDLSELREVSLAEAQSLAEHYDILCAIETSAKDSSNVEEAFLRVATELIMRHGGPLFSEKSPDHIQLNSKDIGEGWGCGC
UniProt Q15291, whole entry, looked up: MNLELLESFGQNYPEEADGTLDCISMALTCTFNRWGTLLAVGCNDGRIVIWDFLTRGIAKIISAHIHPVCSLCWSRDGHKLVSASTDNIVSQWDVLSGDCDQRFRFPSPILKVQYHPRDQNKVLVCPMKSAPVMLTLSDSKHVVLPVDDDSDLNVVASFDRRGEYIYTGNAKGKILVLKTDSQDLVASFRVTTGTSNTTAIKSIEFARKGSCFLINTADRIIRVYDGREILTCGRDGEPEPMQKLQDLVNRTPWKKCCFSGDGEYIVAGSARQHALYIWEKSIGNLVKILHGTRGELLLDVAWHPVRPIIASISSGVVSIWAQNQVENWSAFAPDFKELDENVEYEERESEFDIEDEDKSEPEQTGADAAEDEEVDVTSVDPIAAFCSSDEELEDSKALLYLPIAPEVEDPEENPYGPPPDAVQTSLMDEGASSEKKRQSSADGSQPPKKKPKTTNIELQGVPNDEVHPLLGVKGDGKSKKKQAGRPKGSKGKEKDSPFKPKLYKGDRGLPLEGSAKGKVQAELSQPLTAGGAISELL
UniProt Q9NP72: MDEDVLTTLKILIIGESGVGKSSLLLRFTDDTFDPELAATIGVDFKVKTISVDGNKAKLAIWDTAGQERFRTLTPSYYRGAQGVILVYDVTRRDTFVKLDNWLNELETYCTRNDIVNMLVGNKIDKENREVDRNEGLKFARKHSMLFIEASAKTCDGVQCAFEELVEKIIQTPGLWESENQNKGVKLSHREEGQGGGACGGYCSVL
UniProt P62834: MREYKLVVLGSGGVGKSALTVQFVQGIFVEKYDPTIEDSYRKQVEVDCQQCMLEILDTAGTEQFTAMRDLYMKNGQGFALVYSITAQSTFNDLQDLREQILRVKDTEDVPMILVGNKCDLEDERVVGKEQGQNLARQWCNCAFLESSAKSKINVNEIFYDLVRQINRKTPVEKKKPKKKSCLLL
UniProt Q5HYI8: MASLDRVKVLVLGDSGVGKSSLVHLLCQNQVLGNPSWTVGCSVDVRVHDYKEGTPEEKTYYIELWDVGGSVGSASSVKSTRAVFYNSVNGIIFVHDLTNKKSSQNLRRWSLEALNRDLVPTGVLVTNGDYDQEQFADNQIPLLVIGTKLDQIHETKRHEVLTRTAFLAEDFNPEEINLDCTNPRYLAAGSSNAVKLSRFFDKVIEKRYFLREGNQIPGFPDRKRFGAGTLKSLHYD
UniProt P10114: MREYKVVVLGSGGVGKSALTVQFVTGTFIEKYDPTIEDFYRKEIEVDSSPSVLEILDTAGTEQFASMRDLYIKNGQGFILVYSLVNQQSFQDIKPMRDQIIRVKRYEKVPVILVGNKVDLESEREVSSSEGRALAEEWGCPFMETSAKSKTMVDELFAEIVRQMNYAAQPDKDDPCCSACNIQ
UniProt P20340: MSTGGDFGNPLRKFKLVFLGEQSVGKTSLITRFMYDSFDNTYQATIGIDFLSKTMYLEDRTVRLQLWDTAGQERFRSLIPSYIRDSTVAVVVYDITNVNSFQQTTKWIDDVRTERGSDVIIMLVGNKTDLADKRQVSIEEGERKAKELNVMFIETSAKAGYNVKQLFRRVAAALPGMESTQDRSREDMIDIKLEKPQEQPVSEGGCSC

Key:
Test in all cases: log2 fold change, soluble protein after heating vs DMSO (PISA); higher = thermal stabilisation; K562 cells, 10 uM, 30 min; active = over 0.2 and 3.5 SD of the protein, either way, in both replicates (recomputed)
saracatinib = compound: CN1CCN(CCOc2cc(OC3CCOCC3)c3c(Nc4c(Cl)ccc5c4OCO5)ncnc3c2)CC1 [saracatinib]
How it was run: (§1)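 K562 cells at 2×10^6 cells/mL were given 10 μM compound for 30 min. Aliquots then went through 3 min of heating across 48°C-58°C, were pooled, and were extracted in PBS with 0.5% NP-40 at 4°C, and the supernatant after 21,000xg for 90 min was quantified by TMTpro 16plex LC-MS/MS with channel sums equalised. Thermal stability relative to control samples, from duplicates, is given as log2 fold change.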

sotrastaurin = compound: CN1CCN(c2nc(C3=C(c4c[nH]c5ccccc45)C(=O)NC3=O)c3ccccc3n2)CC1 [sotrastaurin]
How it was run: as §1

alvocidib = compound: CN1CC[C@H](c2c(O)cc(O)c3c(=O)cc(-c4ccccc4Cl)oc23)[C@H](O)C1 [alvocidib]
How it was run: as §1

Tubastatin A = compound: CN1CCc2c(c3ccccc3n2Cc2ccc(C(=O)NO)cc2)C1 [Tubastatin A]
How it was run: as §1

[1] = compound: CNC(=O)C1=CC=CC=C1NC2=NC(=NC=C2Cl)NC3=C(C=C(C=C3)N4CCOCC4)OC
How it was run: as §1

defactinib = compound: CNC(=O)c1ccc(Nc2ncc(C(F)(F)F)c(NCc3nccnc3N(C)S(C)(=O)=O)n2)cc1 [defactinib]
How it was run: as §1

rucaparib = compound: CNCc1ccc(-c2[nH]c3cc(F)cc4c3c2CCNC4=O)cc1 [rucaparib]
How it was run: as §1

[2] = compound: CNc1nc(-c2ccc3c(N)n[nH]c3c2)cc(N2C[C@@H](C(=O)NC3CCCCC3)CC[C@H]2C)n1
How it was run: as §1

encorafenib = compound: COC(=O)N[C@@H](C)CNc1nccc(-c2cn(C(C)C)nc2-c2cc(Cl)cc(NS(C)(=O)=O)c2F)n1 [encorafenib]
How it was run: as §1

[3] = compound: COC(=O)[C@H](CCSC)NC(=O)C1=C(C=C(C=C1)NC[C@H](CS)N)C2=CC=CC=C2
How it was run: as §1

[4] = compound: COC1=CC=C(C=C1)CN2C=CC3=C2C=C(C=C3)C(=O)NO
How it was run: as §1

filanesib = compound: CON(C)C(=O)N1N=C(c2cc(F)ccc2F)S[C@@]1(CCCN)c1ccccc1 [filanesib]
How it was run: as §1

zotarolimus = compound: CO[C@H]1C[C@@H]2CC[C@@H](C)[C@@](O)(O2)C(=O)C(=O)N2CCCC[C@H]2C(=O)O[C@H]([C@H](C)C[C@@H]2CC[C@H](n3cnnn3)[C@H](OC)C2)CC(=O)[C@H](C)/C=C(\C)[C@@H](O)[C@@H](OC)C(=O)[C@H](C)C[C@H](C)/C=C/C=C/C=C/1C [zotarolimus]
How it was run: as §1

idasanutlin = compound: COc1cc(C(=O)O)ccc1NC(=O)[C@@H]1N[C@@H](CC(C)(C)C)[C@](C#N)(c2ccc(Cl)cc2F)[C@H]1c1cccc(Cl)c1F [idasanutlin]
How it was run: as §1

alisertib = compound: COc1cc(Nc2ncc3c(n2)-c2ccc(Cl)cc2C(c2c(F)cccc2OC)=NC3)ccc1C(=O)O [alisertib]
How it was run: as §1

[5] = compound: COc1cc2nc(-c3cc(F)ccc3O)nc(N[C@@H]3CNC[C@H]3C(C)(C)O)c2cc1OC
How it was run: as §1

gefitinib = compound: COc1cc2ncnc(Nc3ccc(F)c(Cl)c3)c2cc1OCCCN1CCOCC1 [gefitinib]
How it was run: as §1

[6] = compound: COc1cccc2cc(-c3nc([C@H]4CC[C@H](C(=O)O)CC4)n4ncnc(N)c34)[nH]c12
How it was run: as §1

lapatinib = compound: CS(=O)(=O)CCNCc1ccc(-c2ccc3ncnc(Nc4ccc(OCc5cccc(F)c5)c(Cl)c4)c3c2)o1 [lapatinib]
How it was run: as §1

pictilisib = compound: CS(=O)(=O)N1CCN(Cc2cc3nc(-c4cccc5[nH]ncc45)nc(N4CCOCC4)c3s2)CC1 [pictilisib]
How it was run: as §1

Measured: log2 fold change

RAP1B (UniProt P61224)
inactive: saracatinib 0.039 | sotrastaurin 0.059 | alvocidib -0.012 | Tubastatin A 0.017 | [1] 0.151 | defactinib -0.024 | rucaparib -0.017 | [2] 0.006 | encorafenib -0.02 | [3] 0.011 | [4] 0.195 | filanesib -0.02 | zotarolimus 0.014 | idasanutlin -0.023 | alisertib -0.003 | [5] -0.048 | gefitinib -0.01 | [6] 0.015 | lapatinib 0.033 | pictilisib 0.014

RABGGTB (UniProt P53611)
inactive: saracatinib 0.046 | sotrastaurin 0.134 | alvocidib -0.073 | Tubastatin A 0.051 | [1] -0.063 | defactinib -0.081 | rucaparib 0 | [2] -0.04 | encorafenib -0.01 | [3] 0.073 | [4] -0.034 | filanesib 0.024 | zotarolimus 0.053 | idasanutlin 0.036 | alisertib -0.052 | [5] 0.008 | gefitinib 0.019 | [6] 0.032 | lapatinib -0.048 | pictilisib 0.083

RAB1A (UniProt P62820)
inactive: saracatinib 0.045 | sotrastaurin 0.032 | alvocidib 0.01 | Tubastatin A -0.028 | [1] -0.017 | defactinib 0 | rucaparib -0.061 | [2] -0.035 | encorafenib -0.021 | [3] 0.02 | [4] -0.035 | filanesib -0.092 | zotarolimus -0.028 | idasanutlin -0.017 | alisertib -0.07 | [5] -0.002 | gefitinib 0.008 | [6] 0.033 | lapatinib -0.036 | pictilisib -0.001

RBFOX2 isoform 8 (UniProt O43251)
inactive: saracatinib 0.07 | sotrastaurin -0.248 | alvocidib 0.012 | Tubastatin A -0.011 | [1] -0.098 | defactinib -0.024 | rucaparib 0.04 | [2] 0.015 | encorafenib 0.009 | [3] 0.018 | [4] -0.223 | filanesib 0.208 | zotarolimus 0.008 | idasanutlin -0.122 | alisertib -0.118 | [5] -0.037 | gefitinib -0.238 | [6] -0.045 | lapatinib 0.237 | pictilisib 0.024

RAB5A (UniProt P20339)
inactive: saracatinib 0.105 | sotrastaurin -0.067 | alvocidib -0.014 | Tubastatin A -0.007 | [1] 0.016 | defactinib -0.053 | rucaparib -0.061 | [2] -0.037 | encorafenib -0.012 | [3] -0.017 | [4] 0.147 | filanesib -0.151 | zotarolimus 0.017 | idasanutlin -0.108 | alisertib -0.129 | [5] -0.049 | gefitinib -0.016 | [6] 0.021 | lapatinib 0.011 | pictilisib -0.11

RANBP1 (UniProt P43487)
inactive: saracatinib 0.024 | sotrastaurin 0.01 | alvocidib -0.066 | Tubastatin A 0.004 | [1] 0.022 | defactinib 0.005 | rucaparib -0.064 | [2] -0.011 | encorafenib 0.054 | [3] 0.001 | [4] 0.059 | filanesib -0.025 | zotarolimus 0.03 | idasanutlin 0.003 | alisertib -0.073 | [5] -0.024 | gefitinib 0 | [6] 0.014 | lapatinib -0.002 | pictilisib -0.056

RAD21 (UniProt O60216)
inactive: saracatinib 0.023 | sotrastaurin -0.048 | alvocidib -0.043 | Tubastatin A -0.004 | [1] -0.04 | defactinib -0.092 | rucaparib -0.056 | [2] 0.002 | encorafenib 0.002 | [3] 0.005 | [4] 0.05 | filanesib 0.05 | zotarolimus 0.009 | idasanutlin 0.002 | alisertib -0.052 | [5] -0.006 | gefitinib 0.006 | [6] 0.042 | lapatinib 0.029 | pictilisib 0.024

RAB43 (UniProt Q86YS6)
inactive: saracatinib 0.124 | sotrastaurin -0.048 | alvocidib 0.016 | Tubastatin A -0.076 | [1] -0.015 | defactinib -0.201 | rucaparib 0.086 | [2] -0.022 | encorafenib -0.152 | [3] -0.112 | [4] -0.005 | filanesib 0.16 | zotarolimus -0.052 | idasanutlin -0.013 | alisertib -0.109 | [5] 0.061 | gefitinib 0.135 | [6] 0.095 | lapatinib -0.075 | pictilisib 0.076

RBBP5 (UniProt Q15291)
inactive: saracatinib 0.035 | sotrastaurin 0 | alvocidib 0.014 | Tubastatin A 0.006 | [1] -0.025 | defactinib -0.01 | rucaparib -0.028 | [2] -0.1 | encorafenib 0.008 | [3] 0.042 | [4] 0.032 | filanesib 0.026 | zotarolimus -0.04 | idasanutlin 0.017 | alisertib -0.052 | [5] -0.012 | gefitinib -0.008 | [6] 0.049 | lapatinib -0.002 | pictilisib -0.012

RAB18 (UniProt Q9NP72)
inactive: saracatinib 0.132 | sotrastaurin 0.045 | alvocidib -0.014 | Tubastatin A -0.078 | [1] -0.002 | defactinib 0.033 | rucaparib -0.034 | [2] 0.013 | encorafenib -0.012 | [3] 0.012 | [4] -0.003 | filanesib -0.016 | zotarolimus -0.017 | idasanutlin -0.016 | alisertib -0.001 | [5] -0.014 | gefitinib 0.018 | [6] 0.029 | lapatinib 0.002 | pictilisib -0.084

RAB12, A0A3B3ITT1
inactive: saracatinib 0.047 | sotrastaurin 0.104 | alvocidib -0.058 | Tubastatin A -0.025 | [1] -0.092 | defactinib -0.007 | rucaparib 0 | [2] 0.009 | encorafenib 0.001 | [3] 0.015 | [4] 0.018 | filanesib -0.008 | zotarolimus 0.006 | idasanutlin -0.044 | alisertib -0.056 | [5] 0.074 | gefitinib 0.02 | [6] 0.072 | lapatinib 0.001 | pictilisib 0.163

RAP1A (UniProt P62834)
inactive: saracatinib 0.037 | sotrastaurin 0.061 | alvocidib -0.037 | Tubastatin A 0.007 | [1] 0.025 | defactinib -0.017 | rucaparib -0.068 | [2] 0.003 | encorafenib -0.02 | [3] -0.028 | [4] -0.053 | filanesib 0.006 | zotarolimus -0.027 | idasanutlin -0.007 | alisertib -0.027 | [5] 0.008 | gefitinib 0.017 | [6] 0.005 | lapatinib -0.006 | pictilisib 0.059

RABL3 (UniProt Q5HYI8)
inactive: saracatinib -0.044 | sotrastaurin 0.01 | alvocidib -0.04 | Tubastatin A -0.013 | [1] 0.036 | defactinib -0.034 | rucaparib -0.046 | [2] -0.02 | encorafenib 0.009 | [3] -0.023 | [4] -0.056 | filanesib -0.069 | zotarolimus -0.005 | idasanutlin -0.043 | alisertib -0.021 | [5] -0.013 | gefitinib -0.007 | [6] 0.033 | lapatinib 0.009 | pictilisib 0.049

RAP2A (UniProt P10114)
inactive: saracatinib -0.049 | sotrastaurin 0.053 | alvocidib 0.019 | Tubastatin A 0.032 | [1] -0.083 | defactinib -0.063 | rucaparib -0.021 | [2] 0.064 | encorafenib -0.02 | [3] 0.009 | [4] -0.064 | filanesib 0.007 | zotarolimus -0.052 | idasanutlin 0.007 | alisertib 0.046 | [5] 0.041 | gefitinib 0.028 | [6] 0.047 | lapatinib -0.014 | pictilisib -0.033

RAB6A isoform 2 (UniProt P20340)
inactive: saracatinib 0.026 | sotrastaurin 0.043 | alvocidib 0.007 | Tubastatin A -0.034 | [1] -0.003 | defactinib -0.015 | rucaparib 0.059 | [2] -0.038 | encorafenib -0.108 | [3] -0.004 | [4] -0.083 | filanesib -0.026 | zotarolimus -0.028 | idasanutlin -0.046 | alisertib 0.004 | [5] 0.047 | gefitinib 0.015 | [6] 0.038 | lapatinib -0.009 | pictilisib 0.033

Reprinted from above (2 entries):
RAP2A (UniProt P10114)
inactive: saracatinib -0.049 | sotrastaurin 0.053 | alvocidib 0.019 | Tubastatin A 0.032 | [1] -0.083 | defactinib -0.063 | rucaparib -0.021 | [2] 0.064 | encorafenib -0.02 | [3] 0.009 | [4] -0.064 | filanesib 0.007 | zotarolimus -0.052 | idasanutlin 0.007 | alisertib 0.046 | [5] 0.041 | gefitinib 0.028 | [6] 0.047 | lapatinib -0.014 | pictilisib -0.033

RAB6A isoform 2 (UniProt P20340)
inactive: saracatinib 0.026 | sotrastaurin 0.043 | alvocidib 0.007 | Tubastatin A -0.034 | [1] -0.003 | defactinib -0.015 | rucaparib 0.059 | [2] -0.038 | encorafenib -0.108 | [3] -0.004 | [4] -0.083 | filanesib -0.026 | zotarolimus -0.028 | idasanutlin -0.046 | alisertib 0.004 | [5] 0.047 | gefitinib 0.015 | [6] 0.038 | lapatinib -0.009 | pictilisib 0.033
